According to PubChem BioAssay AID328 (DTP/NCI, 2004):
The list does not hold the whole screen: it is rich in T/C values a quarter to a half above the control, in often repeated tests (any T/C) and in doses without a T/C. Further doses and runs are listed elsewhere. T/C is the treated group as % of the vehicle group. Some doses have a count of surviving animals in place of a T/C: the source holds a T/C of zero for them, seemingly a mark for toxic or unscored doses. Some survivor counts are full or nearly so, which does not show that the dose was tolerated: the source hardly ever lists a survival T/C far under the control, and the zero likely stands for such cases as well. Counts of survivors are from the toxicity check (mostly the fifth day) where no day follows; animals may have died later. Schedule codes are those of the source, read here as Q, the interval in days (D) or hours (H), X, the number of doses. For survival time, the PubChem record calls one and a half times the control and up active, and a quarter to a half above the control has no call in these data; cut-offs in other NCI protocols can differ. Some T/C values are followed by the survivors on the day toxicity was checked, most often the fifth; without a count, all were alive then.

System: BDF1 mice, P388 leukemia ip, median survival T/C
Test: NCI In Vivo Anticancer Drug Screen. Data for tumor model P388 Leukemia (intraperitoneal) in B6D2F1 (BDF1) mice
Settings: T/C endpoint: median survival time, higher T/C = longer survival
In short: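 T/C = treated-group survival ÷ vehicle-control survival; tumour transplanted into mice before dosing.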

[1] = dose: 400.0 mg/kg/injection, schedule: Q04DX003 (ip), vehicle: Klucel (hydroxypropylcellulose) (HPC)
[2] = dose: 200.0 mg/kg/injection, schedule: Q01DX009 (ip), vehicle: saline with Tween-80
[3] = dose: 200.0 mg/kg/injection, schedule: Q04DX003 (ip), vehicle: saline with Tween-80
[4] = dose: 400.0 mg/kg/injection, schedule: Q04DX003 (ip), vehicle: saline with Tween-80
[5] = dose: 100.0 mg/kg/injection, schedule: Q01DX009 (ip), vehicle: saline with Tween-80
[6] = dose: 400.0 mg/kg/injection, schedule: Q01DX009 (ip), vehicle: saline with Tween-80

CC(CCl)N(CCCl)Cc1cccc(Nc2ncnc3nc[nH]c23)c1 (stereo unspecified)
T/C (dose: 0.37 mg/kg/injection, schedule: Q01DX009 (ip), vehicle: saline): 136 % of control
T/C (dose: 0.44 mg/kg/injection, schedule: Q04DX003 (ip), vehicle: saline): 136 % of control
T/C (dose: 0.66 mg/kg/injection, schedule: Q04DX003 (ip), vehicle: saline): 136 % of control
T/C (dose: 0.75 mg/kg/injection, schedule: Q01DX009 (ip), vehicle: saline): 136 % of control
T/C (dose: 1.0 mg/kg/injection, schedule: Q04DX003 (ip), vehicle: saline): 145 % of control
T/C (dose: 1.3 mg/kg/injection, schedule: Q01DX009 (ip), vehicle: saline): 148 % of control
T/C (dose: 1.5 mg/kg/injection, schedule: Q04DX003 (ip), vehicle: saline): 140 % of control
survivor count (dose: 20.0 mg/kg/injection, schedule: Q04DX003 (ip), vehicle: saline): 2 of 6
survivor count (dose: 40.0 mg/kg/injection, schedule: Q04DX003 (ip), vehicle: saline): 0 of 6

CC(=O)[C@H]1CC[C@H]2[C@@H]3CC[C@@H]4C[C@@H](O)CC[C@]4(C)[C@H]3CC[C@]12C
survivor count (dose: 650.0 mg/kg/injection, schedule: Q01DX009 (ip), vehicle: saline with Tween-80): 2 of 3

NC(CSCc1ccccc1)(CSCc1ccccc1)C(=O)O
survivor count (dose: 25.0 mg/kg/injection, schedule: Q01DX009 (ip), vehicle: other): 6 of 6
survivor count (dose: 100.0 mg/kg/injection, schedule: Q01DX009 (ip), vehicle: other): 6 of 6

Nc1ccccc1-c1ccccc1N
survivor count [1]: 2 of 6

Nc1ccc(OCCCc2c(-c3ccccc3)nc(N)[nH]c2=O)cc1
survivor count [2]: 4 of 6

ClC1=C(Cl)C2(Cl)C(Br)C(Br)C1(Cl)C2(Cl)Cl (stereo unspecified)
survivor count (dose: 100.0 mg/kg/injection, schedule: Q04DX003 (ip), vehicle: Klucel (hydroxypropylcellulose) (HPC)): 6 of 6
survivor count (dose: 200.0 mg/kg/injection, schedule: Q04DX003 (ip), vehicle: other): 6 of 6
survivor count [1]: 6 of 6

O=[N+]([O-])/C=C/c1ccc2ccccc2c1
T/C (dose: 9.38 mg/kg/injection, schedule: Q01DX009 (ip), vehicle: saline with Tween-80): 127 % of control
T/C (dose: 18.75 mg/kg/injection, schedule: Q01DX009 (ip), vehicle: saline with Tween-80): 127 % of control
T/C (dose: 37.5 mg/kg/injection, schedule: Q01DX009 (ip), vehicle: saline with Tween-80): 131 % of control [5 of 6 alive]
T/C (dose: 200.0 mg/kg/injection, schedule: Q01DX009 (ip), vehicle: saline sonified): 130 % of control
T/C [3]: 125 % of control
T/C (dose: 400.0 mg/kg/injection, schedule: Q01DX009 (ip), vehicle: saline sonified): 135 % of control

CC1=CC(C(O)C(C)C)C(C)(Cc2ccc(C)cn2)NC1c1ccccc1 (stereo unspecified)
survivor count (dose: 100.0 mg/kg/injection, schedule: Q04DX003 (ip), vehicle: saline with Tween-80): 0 of 6
survivor count [3]: 0 of 6
survivor count [4]: 0 of 6

NC(Cc1ccc(O)c(I)c1)C(=O)O (stereo unspecified)
survivor count (dose: 400.0 mg/kg/injection, schedule: Q01DX009 (ip), vehicle: saline): 3 of 6

CC[C@H](/C=C/[C@@H](C)[C@H]1CC[C@H]2[C@@H]3CC=C4C[C@@H](OC(=O)/C=C\C(=O)O)CC[C@]4(C)[C@H]3CC[C@]12C)C(C)C
survivor count (dose: 35.0 mg/kg/injection, schedule: Q01DX009 (ip), vehicle: other): 6 of 6
survivor count (dose: 55.0 mg/kg/injection, schedule: Q01DX009 (ip), vehicle: other): 5 of 6
survivor count (dose: 80.0 mg/kg/injection, schedule: Q01DX009 (ip), vehicle: other): 0 of 6

COn1nnc2c([N+](=O)[O-])cccc21
survivor count [5]: 1 of 6
survivor count [2]: 0 of 6

O=C(O)CCCCc1ccc(CCCCC(=O)O)cc1
T/C (dose: 75.0 mg/kg/injection, schedule: Q04DX003 (ip), vehicle: Klucel (hydroxypropylcellulose) (HPC)): 130 % of control
survivor count (dose: 150.0 mg/kg/injection, schedule: Q01DX009 (ip), vehicle: Klucel (hydroxypropylcellulose) (HPC)): 6 of 6
survivor count (dose: 225.0 mg/kg/injection, schedule: Q01DX009 (ip), vehicle: Klucel (hydroxypropylcellulose) (HPC)): 6 of 6
survivor count (dose: 300.0 mg/kg/injection, schedule: Q04DX003 (ip), vehicle: Klucel (hydroxypropylcellulose) (HPC)): 0 of 6

CC1(c2cccs2)NC(=O)N(Cl)C1=O (stereo unspecified)
survivor count [5]: 5 of 6
survivor count [2]: 3 of 6
survivor count [3]: 4 of 6
survivor count [6]: 0 of 6

O=C1c2ccccc2C(=O)c2c(O)c(N3CCOCC3)cc(O)c21
survivor count (dose: 1.56 mg/kg/injection, schedule: Q01DX009 (ip), vehicle: saline): 6 of 6
survivor count (dose: 3.12 mg/kg/injection, schedule: Q01DX009 (ip), vehicle: saline): 6 of 6
survivor count (dose: 6.25 mg/kg/injection, schedule: Q01DX009 (ip), vehicle: saline): 6 of 6
survivor count (dose: 12.5 mg/kg/injection, schedule: Q01DX009 (ip), vehicle: saline): 5 of 6
survivor count (dose: 25.0 mg/kg/injection, schedule: Q01DX009 (ip), vehicle: saline): 6 of 6

CC(C)NCc1ccccc1Sc1ccccc1
survivor count (dose: 200.0 mg/kg/injection, schedule: Q01DX001 (ip), vehicle: saline with Tween-80): 0 of 6
survivor count (dose: 400.0 mg/kg/injection, schedule: Q01DX001 (ip), vehicle: saline with Tween-80): 0 of 6

OCCOc1c(Cl)c(Cl)c(Cl)c(Cl)c1Cl
survivor count [3]: 5 of 6

O=[N+]([O-])c1ccc(N2c3ccccc3SC2c2ccco2)c([N+](=O)[O-])c1 (stereo unspecified)
survivor count (dose: 6.25 mg/kg/injection, schedule: Q01DX005 (ip), vehicle: saline with Tween-80): 5 of 5
survivor count (dose: 12.5 mg/kg/injection, schedule: Q01DX005 (ip), vehicle: saline with Tween-80): 5 of 5
survivor count (dose: 25.0 mg/kg/injection, schedule: Q01DX005 (ip), vehicle: saline with Tween-80): 3 of 5

O=[N+]([O-])c1ccc(C=C2C(Cl)=C(Cl)C(Cl)=C2Cl)cc1
survivor count (dose: 50.0 mg/kg/injection, schedule: Q01DX009 (ip), vehicle: saline with Tween-80): 3 of 6
survivor count [5]: 0 of 6
survivor count [2]: 0 of 6

COc1cc(-c2nc3ccccc3c(=O)o2)cc(OC)c1OC
survivor count [4]: 1 of 6

Cc1nc2nc(C(F)(F)F)[nH]c2nc1C
survivor count [6]: 6 of 6

CN(C(=N)N)c1ccc(C(=O)Oc2ccc([N+](=O)[O-])cc2)cc1
T/C (dose: 37.5 mg/kg/injection, schedule: Q04DX003 (ip), vehicle: water): 125 % of control

N#CC(C#N)=c1ccc(=C(C#N)C#N)cc1
survivor count [5]: 2 of 6

CC[CH2][Pb]([CH2]CC)([CH2]CC)[O]C(=O)C(F)(F)F
survivor count (dose: 9.0 mg/kg/injection, schedule: Q01DX009 (ip), vehicle: Klucel (hydroxypropylcellulose) (HPC)): 6 of 6
T/C (dose: 9.0 mg/kg/injection, schedule: Q01DX009 (ip), vehicle: saline with Tween-80): 130 % of control
survivor count (dose: 18.0 mg/kg/injection, schedule: Q01DX009 (ip), vehicle: Klucel (hydroxypropylcellulose) (HPC)): 1 of 6
survivor count (dose: 18.0 mg/kg/injection, schedule: Q01DX009 (ip), vehicle: saline with Tween-80): 0 of 6

O=c1c2ccccc2c2nc3ccc4c(=O)c5ccccc5c5nc6ccc1c2c6c3c45
survivor count (dose: 200.0 mg/kg/injection, schedule: Q01DX005 (ip), vehicle: saline with Tween-80): 5 of 5

CCCCCCCCCCCCCCCCC(C(=O)O)C(O)(CC(=O)O)C(=O)O (stereo unspecified)
survivor count (dose: 100.0 mg/kg/injection, schedule: Q01DX010 (ip), vehicle: saline): 1 of 6

CC[C@H](CC[C@@H](C)[C@H]1CC[C@H]2[C@@H]3CC[C@H]4C[C@@H](O)CC[C@]4(C)[C@H]3CC[C@]12C)C(C)C
survivor count [5]: 5 of 6
survivor count [3]: 6 of 6
